The text below walks through data of patent US4482548A, “Analgesic pharmaceutical compositions containing 5-phenyl-1,4-benzo diazepine compounds and a method of using same” (Kali-Chemie Pharma GmbH, priority 1982, dated 1984).

A short description of this series: Acute toxicity on mice. To be noted: mouse, in vivo, po.

The LD50 is the dose at which mortality reaches 50%. Low readings indicate greater toxicity, high ones lower toxicity. In turn, `CN1C(=O)CN=C(c2ccccc2)c2cc(Cl)ccc21` [Diazepam, 7-chloro-1-methyl-5-phenyl-1,3-dihydro-2H-1,4-benzo diazepin-2-one, reference compound] showed an LD50 of 825 mg/kg.
